Paper PMC11751453
Results are given in words; binding and its absence hold for the method and conditions named. In cells and extracts the contact can be indirect. Some entries that bind do so weakly or less than the wild type.

Protein sequences, listed by entry. Tags and fused reporters are not part of them. Residues count along the entry.
UniProt P48023, residues 130-281: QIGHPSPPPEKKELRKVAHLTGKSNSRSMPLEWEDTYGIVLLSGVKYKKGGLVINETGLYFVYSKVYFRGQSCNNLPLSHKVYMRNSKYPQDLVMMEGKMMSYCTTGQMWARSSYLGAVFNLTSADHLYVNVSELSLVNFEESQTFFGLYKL
UniProt P25445, residues 26-335: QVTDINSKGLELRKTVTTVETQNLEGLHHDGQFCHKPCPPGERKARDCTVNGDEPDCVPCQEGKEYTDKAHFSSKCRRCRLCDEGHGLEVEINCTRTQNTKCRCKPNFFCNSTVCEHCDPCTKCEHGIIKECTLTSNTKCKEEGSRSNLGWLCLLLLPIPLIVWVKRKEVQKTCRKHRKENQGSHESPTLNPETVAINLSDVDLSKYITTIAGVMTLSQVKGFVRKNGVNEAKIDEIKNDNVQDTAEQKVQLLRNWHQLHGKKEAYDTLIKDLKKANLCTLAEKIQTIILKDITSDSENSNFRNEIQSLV

Biological target: Fc-Flag-CD95L (UniProt P48023)
Experiment: co-IP; purified Fc-CD95L (1 µg/ml, 90 min) added to HCT116-PIK3CAmut cell variants, unbound ligand washed off, cells lysed, Fc-CD95L with the receptor complex collected on protein G agarose; only the target purified

binding: binds
Substance: CD95 (Apo1/Fas) (from UniProt P25445 26-335) (receptor)
